{
  "source": "paper PMC9861162",
  "about": "(Pharmaceuticals, 2022)",
  "origin": "cited, not measured here",
  "test_system": "CYP3A4",
  "settings": "cited from earlier work",
  "data": [
    {"smiles": "COC(=O)C1=C(C)NC(C)=C(C(=O)OC)C1c1ccccc1[N+](=O)[O-]", "note": "[Nifedipine]", "values": [
      {"measurement": "fm (fraction metabolized)", "value": 0.96}
    ]}
  ]
}
